According to patent publication US20210244686A1, “Novel Systems And Methods For The Therapeutic Use of Cannabinoids or Cannabinoid Analogs to Increase The Lipid Order of Cholesterol Containing Cell Membranes” (The Regents of the University of Colorado a body corporate, priority 2018, published 2021):

Key:
HaCaT cells = assay: Live cell microscopy apoptosis assay (caspase 3/7 dye); conditions: Atorvastatin 10 μM
Protocol: (§1) To accurately measure cellular apoptosis over time, the present inventors performed live cell microscopy experiments with cells loaded with both DNA and caspase 3/7 dyes, which enables continuous and precise quantification of apoptosis at the single cell level.
(§2) Cell viability for SK-N-BE(2) cells was conducted using a fluorometric cell viability assay using Resazurin (PromoKine) according to the manufacturer's instructions. […] Dyes were added at the time of seeding, 18-24 hours prior to performing experiments.
(§3) Experiments were performed using an ImageXpress MicroXL microscope and a 10× objective, where images were acquired for each well at the indicated time-points using DAPI and FITC filter sets. […] Percent apoptotic cells was calculated from the sum of apoptotic cell pixels divided by the sum of all cell pixels for each field of view.

SK-N-BE(2) cells = assay: as above; conditions: 15 hours; Atorvastatin 10 μM
Protocol: as §1, §2, §3

Compound: CC(C)c1c(C(=O)Nc2ccccc2)c(-c2ccccc2)c(-c2ccc(F)cc2)n1CC[C@@H](O)C[C@@H](O)CC(=O)O [Atorvastatin]
- protection from CBD induced apoptosis by inhibition of cholesterol biosynthesis, relative to SK-N-BE(2) (HaCaT cells): far more pronounced
- toxic effect (apoptosis) of high CBD doses with simultaneous atorvastatin vs CBD alone (SK-N-BE(2) cells): dramatically reduced
